From PMC4144769

Biological target: T1, mitogen-activated protein kinase 3 (MPK3) (Arabidopsis (endogenous in WT leaves)) (UniProt Q39023)
T1 sequence: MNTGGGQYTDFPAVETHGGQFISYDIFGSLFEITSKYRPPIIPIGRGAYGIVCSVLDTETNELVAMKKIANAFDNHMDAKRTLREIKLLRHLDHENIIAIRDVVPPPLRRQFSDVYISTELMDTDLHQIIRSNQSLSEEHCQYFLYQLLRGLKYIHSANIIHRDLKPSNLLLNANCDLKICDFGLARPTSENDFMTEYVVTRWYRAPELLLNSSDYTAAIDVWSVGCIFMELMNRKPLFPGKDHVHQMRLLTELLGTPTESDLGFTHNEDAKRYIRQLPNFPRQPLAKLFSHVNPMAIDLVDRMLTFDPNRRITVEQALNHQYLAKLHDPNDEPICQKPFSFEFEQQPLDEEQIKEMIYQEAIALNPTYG
Assay: co-IP; total protein extracts of WT Arabidopsis leaves, RL-pre-treated, at the indicated times after inoculation with Pst-DC3000; immunoprecipitation with anti-ERK antibody (4h) and protein A beads, overnight at 4 °C, washed four times with PBS pH 7.4; LOX detected with rabbit polyclonal anti-LOX antibody

binding: no binding
Substance: lipoxygenase (LOX) (Arabidopsis (endogenous in WT leaves))

No constants are given. Whether binding was seen depends on the method and setting. In cells and extracts the contact can be indirect.
